Measurements reported in PubChem BioAssay AID1259254 (NCATS, 2017).

Purpose: 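Gene knock-downs that lead to re-replication, shown by excess G2 DNA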 (primary screen)
Cells: human HCT116 colorectal cancer cells
Reagents: single siRNA against human genes
Timing: 3 days
Read-out: 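Imaged Hoechst DNA stain sorts each cell into a cycle phase by DNA amount; per plate, G2 fraction set to 0% for non-targeting and 100% for GMNN siRNA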
Direction: G2 robust z-score and G2 cells, % of GMNN control: higher = more G2 cells, more excess DNA replication; raw share of cells in G2: higher = larger share of cells with G2 DNA content
Active means: 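Active siRNAs have a G2 robust z of 5 or more median absolute deviations over the median, which in these data means about 38% or higher of GMNN control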
The whole screen tested about 59,000 reagents; shown is a part drawn at random. About 1,550 of all reagents (2.6%) were called active. 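G2 share is only a proxy for re-replication; each gene was hit by three separate siRNAs, and active genes were retested.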 Raw values are not corrected between plates. Reagents against one gene are numbered here. Not stated in the record: the amount of reagent.

no.	target	siRNA no.	G2 robust z-score	G2 cells, % of GMNN control	raw share of cells in G2 (%)	activity call
1	BRF1 (BRF1 general transcription factor IIIB subunit)	1	3.28	26.1	12.6	inactive
2	BRF1 (BRF1 general transcription factor IIIB subunit)	2	0.148	4.01	5.05	inactive
3	BRF1 (BRF1 general transcription factor IIIB subunit)	3	-0.801	-2.67	3.6	inactive
4	ZNF772 (zinc finger protein 772)	1	3.92	30.6	13.6	inactive
5	ZNF772 (zinc finger protein 772)	2	0.947	9.63	6.51	inactive
6	ZNF772 (zinc finger protein 772)	3	2.57	21	10.9	inactive
7	MYEOV (myeloma overexpressed)	1	0.151	4.03	5.93	inactive
8	MYEOV (myeloma overexpressed)	2	3.34	26.4	15.4	inactive
9	MYEOV (myeloma overexpressed)	3	2.1	17.7	9.5	inactive
10	GCC2 (GRIP and coiled-coil domain containing 2)	1	2.13	17.9	13.4	inactive
11	GCC2 (GRIP and coiled-coil domain containing 2)	2	-0.375	0.329	4.08	inactive
12	GCC2 (GRIP and coiled-coil domain containing 2)	3	0.183	4.26	4.95	inactive
13	ELAVL4 (ELAV like RNA binding protein 4)	1	-0.486	-0.454	3.5	inactive
14	ELAVL4 (ELAV like RNA binding protein 4)	2	1.48	13.4	10.1	inactive
15	ELAVL4 (ELAV like RNA binding protein 4)	3	-0.277	1.02	5.65	inactive
16	CDCA5 (cell division cycle associated 5)	1	5.6	42.4	21.1	active
17	CDCA5 (cell division cycle associated 5)	2	11.3	82.2	27.8	active
18	CDCA5 (cell division cycle associated 5)	3	1.78	15.5	6.35	inactive
19	TRIM27 (tripartite motif containing 27)	1	0.307	5.12	6.64	inactive
20	TRIM27 (tripartite motif containing 27)	2	0.134	3.91	5.45	inactive
21	TRIM27 (tripartite motif containing 27)	3	-0.57	-1.04	4.62	inactive
22	JPT2 (Jupiter microtubule associated homolog 2)	1	-0.926	-3.55	2.58	inactive
23	JPT2 (Jupiter microtubule associated homolog 2)	2	-0.74	-2.24	2.3	inactive
24	JPT2 (Jupiter microtubule associated homolog 2)	3	0.15	4.02	4.2	inactive
25	SLC7A6OS	1	-0.617	-1.37	1.99	inactive
26	SLC7A6OS	2	0.177	4.21	5.51	inactive
27	SLC7A6OS	3	1.94	16.6	8.39	inactive
28	ING4 (inhibitor of growth family member 4)	1	0.267	4.84	4.5	inactive
29	ING4 (inhibitor of growth family member 4)	2	0.977	9.84	10.4	inactive
30	ING4 (inhibitor of growth family member 4)	3	-0.416	0.0426	3.65	inactive
31	BRD3 (bromodomain containing 3)	1	-0.379	0.299	5.72	inactive
32	BRD3 (bromodomain containing 3)	2	0.535	6.73	6.69	inactive
33	BRD3 (bromodomain containing 3)	3	0.0569	3.37	5.52	inactive
34	SNAP29 (synaptosome associated protein 29)	1	-0.569	-1.04	4.86	inactive
35	SNAP29 (synaptosome associated protein 29)	2	3.21	25.6	14.6	inactive
36	SNAP29 (synaptosome associated protein 29)	3	2.8	22.7	11.7	inactive
37	NR3C2 (nuclear receptor subfamily 3 group C member 2)	1	-0.369	0.372	5.81	inactive
38	NR3C2 (nuclear receptor subfamily 3 group C member 2)	2	-0.773	-2.47	3.7	inactive
39	NR3C2 (nuclear receptor subfamily 3 group C member 2)	3	-0.479	-0.403	3.82	inactive
40	SUGCT (succinyl-CoA:glutarate-CoA transferase)	1	0.0851	3.57	5.92	inactive
41	SUGCT (succinyl-CoA:glutarate-CoA transferase)	2	-0.334	0.62	4.57	inactive
42	SUGCT (succinyl-CoA:glutarate-CoA transferase)	3	-1.08	-4.65	1.11	inactive
43	GTF3C2 (general transcription factor IIIC subunit 2)	1	1.2	11.4	10	inactive
44	GTF3C2 (general transcription factor IIIC subunit 2)	2	-0.835	-2.91	3.13	inactive
45	GTF3C2 (general transcription factor IIIC subunit 2)	3	-1	-4.09	3.56	inactive
46	PCCA (propionyl-CoA carboxylase subunit alpha)	1	-0.656	-1.65	4.08	inactive
47	PCCA (propionyl-CoA carboxylase subunit alpha)	2	-0.68	-1.81	4.52	inactive
48	PCCA (propionyl-CoA carboxylase subunit alpha)	3	-0.457	-0.25	3.11	inactive
49	KRT36 (keratin 36)	1	-0.0261	2.78	5.7	inactive
50	KRT36 (keratin 36)	2	1.83	15.8	10.8	inactive
51	KRT36 (keratin 36)	3	-0.399	0.163	4.61	inactive
52	ZNF490 (zinc finger protein 490)	1	-0.61	-1.32	2.33	inactive
53	ZNF490 (zinc finger protein 490)	2	-0.232	1.34	6.51	inactive
54	ZNF490 (zinc finger protein 490)	3	-0.0883	2.35	4.37	inactive
55	DCAF8L2 (DDB1 and CUL4 associated factor 8 like 2)	1	-0.201	1.56	4.52	inactive
56	DCAF8L2 (DDB1 and CUL4 associated factor 8 like 2)	2	2	17.1	10.7	inactive
57	DCAF8L2 (DDB1 and CUL4 associated factor 8 like 2)	3	-0.965	-3.83	2.65	inactive
58	TMEM54 (transmembrane protein 54)	1	0.0539	3.35	5.43	inactive
59	TMEM54 (transmembrane protein 54)	2	-0.0206	2.82	4.17	inactive
60	TMEM54 (transmembrane protein 54)	3	-0.7	-1.96	1.25	inactive
61	ARHGEF25 (Rho guanine nucleotide exchange factor 25)	1	0.515	6.59	6.73	inactive
62	ARHGEF25 (Rho guanine nucleotide exchange factor 25)	2	-1.49	-7.55	1.08	inactive
63	ARHGEF25 (Rho guanine nucleotide exchange factor 25)	3	0.474	6.3	3.66	inactive
64	VSIG2 (V-set and immunoglobulin domain containing 2)	1	3.47	27.4	14.7	inactive
65	VSIG2 (V-set and immunoglobulin domain containing 2)	2	1.7	14.9	10.4	inactive
66	VSIG2 (V-set and immunoglobulin domain containing 2)	3	1.7	14.9	8.52	inactive
67	IFIT3 (interferon induced protein with tetratricopeptide repeats 3)	1	-0.566	-1.01	4.68	inactive
68	IFIT3 (interferon induced protein with tetratricopeptide repeats 3)	2	-1.04	-4.33	4.03	inactive
69	IFIT3 (interferon induced protein with tetratricopeptide repeats 3)	3	0.667	7.66	7.01	inactive

7 entries from above, arranged by “raw share of cells in G2 (%)”, highest first:
target	siRNA no.	G2 robust z-score	G2 cells, % of GMNN control	raw share of cells in G2 (%)	activity call
DCAF8L2 (DDB1 and CUL4 associated factor 8 like 2)	2	2	17.1	10.7	inactive
ZNF490 (zinc finger protein 490)	2	-0.232	1.34	6.51	inactive
TMEM54 (transmembrane protein 54)	1	0.0539	3.35	5.43	inactive
DCAF8L2 (DDB1 and CUL4 associated factor 8 like 2)	1	-0.201	1.56	4.52	inactive
ZNF490 (zinc finger protein 490)	3	-0.0883	2.35	4.37	inactive
DCAF8L2 (DDB1 and CUL4 associated factor 8 like 2)	3	-0.965	-3.83	2.65	inactive
ZNF490 (zinc finger protein 490)	1	-0.61	-1.32	2.33	inactive
